These are yes or no findings as the source states them, for the method shown. Some entries that bind do so weakly or less than the wild type.

Experiment [1] deals with His6-RECQ1 (human RECQ1 helicase, wild type, 649-amino acid variant) (human) (UniProt P46063). As to the kind of experiment: negative-stain transmission electron microscopy; unpublished data: His-tagged RECQ1 with ssDNA, and upon addition of ATP; both purified.
The target is the same in experiment [2]. As to the kind of experiment: negative-stain transmission electron microscopy; about 15 ug/ml protein in 20 mM TrisHCl pH 7.4, 150 mM KCl, 2 mM MgCl2, 1% uranyl acetate; alone or with 1.5 molar excess oligo(dT)30, no nucleotide; single-particle 3D reconstruction without symmetry; both purified.
Experiment [3] has as its target untagged RECQ1 (utRECQ1; human RECQ1 helicase after removal of the N-terminal His6-tag) (human) (UniProt P46063). As to the kind of experiment: negative-stain transmission electron microscopy; as a2 but with 2-5 mM ATP or ATPγS, with or without oligo(dT)30; both purified.

Consider “His6-RECQ1 (human RECQ1 helicase, wild type, 649-amino acid variant) (from UniProt P46063 1-649) (enzyme)”, for which the binding result in experiment [1] and in experiment [2] was “binds” throughout.

B1: untagged RECQ1 (utRECQ1; human RECQ1 helicase after removal of the N-terminal His6-tag) (enzyme, UniProt P46063 1-649, looked up)
chain: MASVSALTEELDSITSELHAVEIQIQELTERQQELIQKKKVLTKKIKQCLEDSDAGASNEYDSSPAAWNKEDFPWSGKVKDILQNVFKLEKFRPLQLETINVTMAGKEVFLVMPTGGGKSLCYQLPALCSDGFTLVICPLISLMEDQLMVLKQLGISATMLNASSSKEHVKWVHAEMVNKNSELKLIYVTPEKIAKSKMFMSRLEKAYEARRFTRIAVDEVHCCSQWGHDFRPDYKALGILKRQFPNASLIGLTATATNHVLTDAQKILCIEKCFTFTASFNRPNLYYEVRQKPSNTEDFIEDIVKLINGRYKGQSGIIYCFSQKDSEQVTVSLQNLGIHAGAYHANLEPEDKTTVHRKWSANEIQVVVATVAFGMGIDKPDVRFVIHHSMSKSMENYYQESGRAGRDDMKADCILYYGFGDIFRISSMVVMENVGQQKLYEMVSYCQNISKCRRVLMAQHFDEVWNSEACNKMCDNCCKDSAFERKNITEYCRDLIKILKQAEELNEKLTPLKLIDSWMGKGAAKLRVAGVVAPTLPREDLEKIIAHFLIQQYLKEDYSFTAYATISYLKIGPKANLLNNEAHAITMQVTKSTQNSFRAESSQTCHSEQGDKKMEEKNSGNFQKKAANMLQQSGSKNTGAKKRKIDDA
notes: human RECQ1 helicase (alias RECQL), the 649-amino acid variant; also called untagged wild-type RECQ1; source: baculovirus/Sf9 cells, purified; not shown: His6, N-terminal, cleaved
Take B1: in experiment [3], the binding entry is “binds weakly”.

The values above are taken from paper PMC1769423, “Different Quaternary Structures of Human RECQ1 Are Associated with Its Dual Enzymatic Activity” (PLoS Biology, 2007).
